Experimental data from paper PMC8669397.

Target: MatP (Photorhabdus thracensis) (UniProt A0A0F7LUV5)
Test: EMSA
Details: EMSA: 2 nM DNA, 20 mM HEPES, 30 mM NaCl, 1 mM TCEP, pH 7.3, 5 min at RT, 6% gel in 0.5x TBE at 4 C; recombinant protein; label: 5' 6-FAM on strand 1

Sequence | binding result
CACTGTGACATTGTCACGGCA (double strand) [matS1 21 bp] | binds more weakly
CACTGTTACAGTGTAACGGCA (double strand) [matS2 21 bp] | binds

Construct, isoform or probe ends are uncertain for at least one entry. The comparison behind a weaker result is the experiment's own reference, which may not be listed here. At least one verdict was read from the data and is not stated in words by the source.
